We go through 42 sequences from article PMC7819943, “Rice protein-binding microarrays: a tool to detect cis-acting elements near promoter regions in rice”.

Sequences of proteins named here, by UniProt entry; tags and fusion partners are left off.
UniProt Q0JBA9, entry or part of it: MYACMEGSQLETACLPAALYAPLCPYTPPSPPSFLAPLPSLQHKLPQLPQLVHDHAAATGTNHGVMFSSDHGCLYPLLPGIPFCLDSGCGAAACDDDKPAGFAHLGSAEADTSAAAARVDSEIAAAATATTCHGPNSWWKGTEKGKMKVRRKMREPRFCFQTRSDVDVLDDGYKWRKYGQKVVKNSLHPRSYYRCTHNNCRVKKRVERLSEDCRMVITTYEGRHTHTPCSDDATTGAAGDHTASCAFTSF

The other results are listed elsewhere or left out.

The target of this test is OsWRKY34 (Oryza sativa, UniProt Q0JBA9 1-250). As to the kind of experiment: protein-binding microarray (RPBM); PBS, 2% BSA, 51.3 ng/ul salmon testes DNA, 50 uM zinc acetate, 200 nM TF, 25 C, 1 h; high values mean tight binding. Conditions: protein: recombinant; tags: N-terminal polyhistidine and DsRed monomer fusion (pET32a); label: CyDye5-dUTP incorporated in the synthesized complementary strand; 3' TTTTT single-stranded linker to array surface; dsDNA, one strand shown. An outline of the steps:
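For the binding signal, per-feature fluorescence intensity was read in arbitrary units on an Axon 4000B scanner. Before scanning, a 2% BSA-blocked custom Agilent array made double-stranded with Cy5-dUTP was washed after 1 h at 25 °C with 200 nM protein and 50 µM zinc acetate. The proteins were Ni–NTA-purified transcription factors with N-terminal polyhistidine and DsRed fusions, expressed in E. coli BL21-CodonPlus.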
For “GGGCTGCTGGATTTTGCGTCCTCTCGTGCGGCCGCGTCGTCGGAGTCACCTAGTGCAG”, the binding signal was 8300 fluorescence intensity (a.u.). Turning to “TTCCAAGCTTTTCTTCCCTCTCATGGAAGAATTTTCCGTTCGGAGTCACCTAGTGCAG”, the binding signal is 8080 fluorescence intensity (a.u.). As to “GAAAGTTTATGTTGTTATGCTTCAACTGTTATTCATTATTCGGAGTCACCTAGTGCAG”, the binding signal was 8900 fluorescence intensity (a.u.). Take “TAATTGTACATATTGCGATTAATTTGCGAGACAAATTTTTCGGAGTCACCTAGTGCAG”: the binding signal is 8320 fluorescence intensity (a.u.).

“TCTTTCGAGACGGTTTGTTTGCAGCATGTGCTCACTTTCACGGAGTCACCTAGTGCAG”: the binding signal is 9500 fluorescence intensity (a.u.). For “CACGCGATGAAATCATCTGCGCATCCTGTACTTTCAATTTCGGAGTCACCTAGTGCAG” the value was 8030 fluorescence intensity (a.u.); for “CCGCCGCCGCTCTTGCCCGCCATCGCCCCGCCGGTCTCGGCGGAGTCACCTAGTGCAG”, 11900 fluorescence intensity (a.u.); for “GATTACGATCTTGCTCTGTTGCATGCTGTCTTGATTAAACCGGAGTCACCTAGTGCAG”, 12600 fluorescence intensity (a.u.). With “CTTCCTATTTTCCACTCACTTGGTTTTTTTATGCTTCTCGCGGAGTCACCTAGTGCAG”, the binding signal is 8090 fluorescence intensity (a.u.). “CGGCCTTCCACTGCCCGCCGCCGCCGCTCCAGCCCACCACCGGAGTCACCTAGTGCAG”: the binding signal is 9360 fluorescence intensity (a.u.).

As for “TGTGCGCGTGTTGTTTTTTTGGCTTCTTTTTCGCTTGCCACGGAGTCACCTAGTGCAG”, the binding signal is 11400 fluorescence intensity (a.u.).

In the case of “CGCTTTCCTCACAATTCATCGCACTCTCGCTCGTTGATGTCGGAGTCACCTAGTGCAG”, the binding signal was 13500 fluorescence intensity (a.u.). In the case of “TTGTACGACCAGGGCCCATCACCATCTCTCGCTGCATTTACGGAGTCACCTAGTGCAG”, the binding signal is 8830 fluorescence intensity (a.u.). Regarding “ACCACTATCCGTTCGAATTCGCTCCGTTTTCACCCTTCGCCGGAGTCACCTAGTGCAG”, the binding signal was 8380 fluorescence intensity (a.u.). For “ACGACGACCGCATCTCTCTCGCCTTGCCGTGAAGCTTCGACGGAGTCACCTAGTGCAG” the value was 8900 fluorescence intensity (a.u.); for “TCCTAATGACTCCACATTTTCCTGTCAATTTCCACACTAACGGAGTCACCTAGTGCAG”, 12000 fluorescence intensity (a.u.); for “CCGAGCCGCATCCTCACCGCCTCCGACGCCGCCCGCGAGGCGGAGTCACCTAGTGCAG”, 10500 fluorescence intensity (a.u.).

For the sequence “CCCAAACTACAAACCAACTGAATTTTGCTTTCAACATAACCGGAGTCACCTAGTGCAG”, the binding signal is 8320 fluorescence intensity (a.u.). Take “GATCTCCTCTAGCTTTCTCGCTCGCCTCTCCTCTCCTGTTCGGAGTCACCTAGTGCAG”: the binding signal was 8790 fluorescence intensity (a.u.). For “TTCATAGGTTTGGACCCTCACGAGCCCTCGGTCCTACACGCGGAGTCACCTAGTGCAG”, the binding signal was 8590 fluorescence intensity (a.u.). Regarding “AGAGAGAGAGACTCATATCGCCGCCACATCTCTCACATCTCGGAGTCACCTAGTGCAG”, the binding signal is 8870 fluorescence intensity (a.u.). Consider “GGCGCTGGTATTGATGCGTCATTTTCATCTATTTGCATTTCGGAGTCACCTAGTGCAG”, for which the binding signal is 9680 fluorescence intensity (a.u.). The figure for “AGTAACTACCTGACTATCTAACTTTCTTTTTTCTTCAGGACGGAGTCACCTAGTGCAG” is 8760 fluorescence intensity (a.u.). “ATGTTTTATGCACTTGTTTCACTGTCACATCCATTGTATGCGGAGTCACCTAGTGCAG”: the binding signal was 8750 fluorescence intensity (a.u.). With “TGTTTTGACTTTTTGACCCACCCAAACTCATTCTCACCTCCGGAGTCACCTAGTGCAG”, the binding signal is 11500 fluorescence intensity (a.u.). The figure for “TTTCACTCTCGCGAACCTTCCACACACAGACTAGGAGCTTCGGAGTCACCTAGTGCAG” is 8340 fluorescence intensity (a.u.). Take “CCTCTGCACTCAGATTTGCAAGGTGGTGTTATTACCCATACGGAGTCACCTAGTGCAG”: the binding signal was 8100 fluorescence intensity (a.u.). Regarding “TAGCCATCTCAGCCAATTGTGTTTTTTCCCTTATGGTTGACGGAGTCACCTAGTGCAG”, the binding signal was 8470 fluorescence intensity (a.u.).

Take “TTCACGGTGTTTCGACCTCTGTGTTCTGGTAGCTTTTCTTCGGAGTCACCTAGTGCAG”: the binding signal is 9940 fluorescence intensity (a.u.). For “TTCCTTAAGGCTCTGAAGCATATCTCCAGCTGTTACAGCACGGAGTCACCTAGTGCAG” the value was 8360 fluorescence intensity (a.u.).

In the case of “AGCATTTCCATCCACCACACGCGTACGTCCCCGTCACGCGCGGAGTCACCTAGTGCAG”, the binding signal was 8940 fluorescence intensity (a.u.). For the sequence “TCTGGTCCGTCCAACATCTATTTGTCTCTTTGTAACCACACGGAGTCACCTAGTGCAG”, the binding signal is 10600 fluorescence intensity (a.u.). With “ATGCCGTTGACTTTTTAAAATATATTTGACCATTTCCTATCGGAGTCACCTAGTGCAG”, the binding signal is 21700 fluorescence intensity (a.u.). For “TCAGCTACTCTACTCTCCCACTTGCTTCCGCTGCTTCTCCCGGAGTCACCTAGTGCAG” the value was 9460 fluorescence intensity (a.u.); for “GGCAGCGACACCAACTCTCTAGCCGCACGCTGCACTCGCGCGGAGTCACCTAGTGCAG”, 10100 fluorescence intensity (a.u.). For “GATGTCCGGTTTTGTGGTTTAGGGTCATGGATTAGATTTCCGGAGTCACCTAGTGCAG”, the binding signal is 8760 fluorescence intensity (a.u.). In the case of “GCCCACACCTCCCCATCAACGCTCGCGCTGTTCCCGCCTCCGGAGTCACCTAGTGCAG”, the binding signal was 10300 fluorescence intensity (a.u.). As for “CACTACATTGGCCTGCATCTTCAACACAGCAACGTTTCACCGGAGTCACCTAGTGCAG”, the binding signal is 8190 fluorescence intensity (a.u.). With “ACACTCGCTAACTGCTCTCTCTCTCTCTCGTTCATTCCTTCGGAGTCACCTAGTGCAG”, the binding signal was 14700 fluorescence intensity (a.u.).

For the sequence “TGGGAAGTACATATGTAATGTTGTTTATTTATTTTTGTTTCGGAGTCACCTAGTGCAG”, the binding signal was 9860 fluorescence intensity (a.u.). Consider “AAGACTATTTTATTTTCTTAGTTTTTTTTACTGTGTTTCTCGGAGTCACCTAGTGCAG”, for which the binding signal is 13300 fluorescence intensity (a.u.). “ATTCTCTCTTTTGCTCGCTTTGTTCCCTTTTCTTTCTTTTCGGAGTCACCTAGTGCAG”: the binding signal was 8700 fluorescence intensity (a.u.).
